Measured values taken from patent publication US20210290612A1.
Results are given in words; binding and its absence hold for the method and conditions named. In cells and extracts the contact can be indirect. Some results given as binding are weak or reduced against the parent protein; the word gives no strength. Sequences can lack the tags named with a protein.

By UniProt entry, the sequences of proteins in these tests, tags left out. Where a name states a change or a piece, a line headed by the entry shows the natural chain unless it says otherwise.
UniProt Q86VP3: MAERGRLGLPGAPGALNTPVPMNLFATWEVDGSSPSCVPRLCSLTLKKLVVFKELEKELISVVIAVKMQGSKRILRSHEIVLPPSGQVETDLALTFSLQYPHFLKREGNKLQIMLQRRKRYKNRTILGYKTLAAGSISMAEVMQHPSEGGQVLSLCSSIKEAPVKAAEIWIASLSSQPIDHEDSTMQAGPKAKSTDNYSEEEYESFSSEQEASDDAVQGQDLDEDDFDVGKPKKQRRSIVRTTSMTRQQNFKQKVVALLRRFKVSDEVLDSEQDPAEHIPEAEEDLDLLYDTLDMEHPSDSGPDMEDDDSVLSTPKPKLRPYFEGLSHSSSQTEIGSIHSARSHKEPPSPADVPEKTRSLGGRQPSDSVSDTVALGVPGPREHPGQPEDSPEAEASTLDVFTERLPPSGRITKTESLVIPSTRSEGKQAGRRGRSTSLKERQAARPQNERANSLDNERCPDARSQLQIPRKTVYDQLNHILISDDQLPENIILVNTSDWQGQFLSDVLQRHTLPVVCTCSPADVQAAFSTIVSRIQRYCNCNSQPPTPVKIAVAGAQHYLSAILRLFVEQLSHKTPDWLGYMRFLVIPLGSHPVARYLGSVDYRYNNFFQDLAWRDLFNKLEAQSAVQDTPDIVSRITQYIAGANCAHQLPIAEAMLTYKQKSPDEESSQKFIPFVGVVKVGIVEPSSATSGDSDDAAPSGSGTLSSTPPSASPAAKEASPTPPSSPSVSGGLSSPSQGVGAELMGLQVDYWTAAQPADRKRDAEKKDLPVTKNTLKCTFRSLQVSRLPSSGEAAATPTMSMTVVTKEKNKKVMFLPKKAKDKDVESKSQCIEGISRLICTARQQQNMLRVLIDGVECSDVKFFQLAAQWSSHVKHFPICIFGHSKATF

Assays:
HA-tagged PACS2 (human) = HA-tagged PACS2 (human) (UniProt Q86VP3); test: co-immunoprecipitation (anti-Flag) from co-transfected HCT116 cells, anti-HA western blot
[1] = biological target: HA-tagged PACS2^E209K (human) (UniProt Q86VP3); test: as above

- binding (HA-tagged PACS2 (human)): binds
- binding [1]: binds
B1: Flag-tagged SIRT2 (enzyme, not shown: small tags and cut ends)
chain: MAEPDPSHPLETQAGKVQEAQDSDSDSEGGAAGGEADMDFLRNLFSQTLSLGSQKERLLDELTLEGVARYMQSERCRRVICLVGAGISTSAGIPDFRSPSTGLYDNLEKYHLPYPEAIFEISYFKKHPEPFFALAKELYPGQFKPTICHYFMRLLKDKGLLLRCYTQNIDTLERIAGLEQEDLVEAHGTFYTSHCVSASCRHEYPLSWMKEKIFSEVTPKCEDCQSLVKPDIVFFGESLPARFFSCMQSDFLKVDLLLVMGTSLQVQPFASLISKAPLSTPRLLINKEKAGQSDPFLGMIMGLGGGMDFDSKKAYRDVAWLGECDQGCLALAELLGWKKELEDLVRREHASIDAQSGAGVPNPSTSASPKKSPPPAKDEARTTEREKPQ
